Data from paper PMC3280250, “Functional Redundancy of Two Pax-Like Proteins in Transcriptional Activation of Cyst Wall Protein Genes in Giardia lamblia”.

Sequences of proteins named here, by UniProt entry; tags and fusion partners are left off. A change or cut given only in a name is not applied to a line headed by its entry.
UniProt Q8IS82: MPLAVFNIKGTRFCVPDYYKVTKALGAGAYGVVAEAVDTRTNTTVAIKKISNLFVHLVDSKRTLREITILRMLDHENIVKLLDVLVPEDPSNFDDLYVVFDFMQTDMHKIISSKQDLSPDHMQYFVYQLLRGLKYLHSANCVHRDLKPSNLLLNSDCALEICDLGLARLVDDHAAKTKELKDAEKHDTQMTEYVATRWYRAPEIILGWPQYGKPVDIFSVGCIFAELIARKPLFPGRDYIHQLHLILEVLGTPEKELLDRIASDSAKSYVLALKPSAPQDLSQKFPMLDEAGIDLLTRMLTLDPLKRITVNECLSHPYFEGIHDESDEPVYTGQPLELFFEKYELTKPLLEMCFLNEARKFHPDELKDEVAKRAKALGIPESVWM
UniProt A8BSN3: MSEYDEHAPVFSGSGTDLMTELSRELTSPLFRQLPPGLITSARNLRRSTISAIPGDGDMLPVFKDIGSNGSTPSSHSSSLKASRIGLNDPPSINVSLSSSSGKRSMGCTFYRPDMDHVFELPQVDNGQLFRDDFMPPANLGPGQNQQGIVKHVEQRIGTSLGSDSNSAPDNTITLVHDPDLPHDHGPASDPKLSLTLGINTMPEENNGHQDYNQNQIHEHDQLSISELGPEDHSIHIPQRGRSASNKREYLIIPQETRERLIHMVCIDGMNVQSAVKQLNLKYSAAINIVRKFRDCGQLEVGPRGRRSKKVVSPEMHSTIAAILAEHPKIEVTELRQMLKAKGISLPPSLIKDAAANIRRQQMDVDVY
UniProt A8B733: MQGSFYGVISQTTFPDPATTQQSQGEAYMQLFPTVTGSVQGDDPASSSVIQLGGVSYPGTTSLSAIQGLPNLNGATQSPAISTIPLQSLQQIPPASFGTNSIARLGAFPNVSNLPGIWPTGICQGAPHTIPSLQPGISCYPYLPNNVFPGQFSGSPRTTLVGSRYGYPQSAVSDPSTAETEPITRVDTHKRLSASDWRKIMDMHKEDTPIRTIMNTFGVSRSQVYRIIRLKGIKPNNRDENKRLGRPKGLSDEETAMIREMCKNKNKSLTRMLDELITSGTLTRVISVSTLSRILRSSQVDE

Target: HA-tagged ERK1 (extracellular signal-related kinase 1) of Giardia lamblia (Giardia lamblia) (UniProt Q8IS82)
Experiment: co-IP; lysates (luciferase lysis buffer, glass beads) of 5'Δ5N-Pac, pPERK1 and pPERK1m stable transfectants after 24 h in encystation medium; anti-HA antibody conjugated to beads; beads washed three times; Western blot with anti-HA, anti-Pax2 and anti-Pax1

Row | Substance | binding
1 | Giardia lamblia Pax1 protein (from UniProt A8BSN3) | binds
2 | Giardia lamblia Pax2 protein (from UniProt A8B733) | binds

No constants are given. Whether binding was seen depends on the method and setting. In cells and extracts the contact can be indirect. Binding calls can cover weak binding; strength is not graded here.
